{"source": "paper PMC5777986", "binders": {"B1": {"name": "TatE (protein, UniProt P0A843 1-67)", "chain": "MGEISITKLLVVAALVVLLFGTKKLRTLGGDLGAAIKGFKKAMNDDDAAAKKGADVDLQAEKLSHKE"}}, "molecular_target": "TatB (E. coli) (UniProt P69425)", "assay": "cross-linking; inverted inner membrane vesicles (TatABC, TatEBC, TatEABC) diluted in INV-buffer, DCCD (1 µl of 50 mM in 100 µl) added, 20 min on ice, TCA precipitation, 9% Tricine SDS-PAGE, Western blot with antibodies against TatA, TatB, TatC, TatE", "note": "Results are given in words; binding and its absence hold for the method and conditions named. In cells and extracts the contact can be indirect. A result given as binding can be weak or reduced; the word gives no strength."}
{"binder": "B1", "values": [{"measurement": "binding", "result": "binds"}]}
